Legend:
[1] = Bidirectional transport, NCI-H441 air-liquid culture model; format: in vitro ADME; conditions: human, NCI-H441, 2 μM
Method: NCI-H441 cells were cultured in RPMI-1640 medium (Gibco, Thermo, CA, USA) supplemented with 10% FBS and PS (100 U/mL) at 37 °C in a humidified 5% CO2 incubator, and the medium was changed every other day. […] Then, 850 μL of complete medium (containing 200 nM dexamethasone) was added to the basolateral chamber. After approximately 4 days, the TEER value was measured to be about 200 Ω × cm^2, and the medium in the apical surface of the Transwell® was removed. Subsequently, an air-interfaced culture (AIC) was initiated by supplying 650 μL of culture medium to the basolateral chamber only. The culture medium was replaced every other day.
The functional expression of this cell model was confirmed by detecting the mRNA expression of related membrane proteins and probe substrate inhibition experiments. The effective construction of the cellular barrier was acknowledged, and subsequently, the transfer experiment commenced.
We removed the liquid from the apical and basolateral of the Transwell, rinsed the cells three times with a buffer containing HBSS, 10 mM Hepes, and 0.1% BSA (Buffer A), and then added Buffer A (100 µL for the apical side and 600 µL for the basolateral side) for pre-incubation for 30 min at 37 °C. For the transport studies in the apical to basolateral (A-B) direction, 100 μL of pre-warmed test solution (Buffer A containing 2 µM positive control drugs or peramivir) was added to the apical side, while 600 μL of pre-warmed assay buffer, a buffer containing HBSS, 10 mM Hepes, and 1% BSA (Buffer B), was added to the basolateral compartment.
In the bidirectional transport study, the following equations were used to calculate Papp values and ER values:Papp = 1/(A × C0) × (dx/dt)(3) ER = (Papp,BA/Papp,AB) × 100%(4) where A is the surface area of the Transwell insert, C0 is the initial concentration of a compound applied to the donor chamber, t is incubation time, x is the amount of a compound in the receiver chamber, and dx/dt is the flux of the compound across the cell monolayer.

Amino acid sequences for entries named in this document (tags omitted).
UniProt P08183, whole entry: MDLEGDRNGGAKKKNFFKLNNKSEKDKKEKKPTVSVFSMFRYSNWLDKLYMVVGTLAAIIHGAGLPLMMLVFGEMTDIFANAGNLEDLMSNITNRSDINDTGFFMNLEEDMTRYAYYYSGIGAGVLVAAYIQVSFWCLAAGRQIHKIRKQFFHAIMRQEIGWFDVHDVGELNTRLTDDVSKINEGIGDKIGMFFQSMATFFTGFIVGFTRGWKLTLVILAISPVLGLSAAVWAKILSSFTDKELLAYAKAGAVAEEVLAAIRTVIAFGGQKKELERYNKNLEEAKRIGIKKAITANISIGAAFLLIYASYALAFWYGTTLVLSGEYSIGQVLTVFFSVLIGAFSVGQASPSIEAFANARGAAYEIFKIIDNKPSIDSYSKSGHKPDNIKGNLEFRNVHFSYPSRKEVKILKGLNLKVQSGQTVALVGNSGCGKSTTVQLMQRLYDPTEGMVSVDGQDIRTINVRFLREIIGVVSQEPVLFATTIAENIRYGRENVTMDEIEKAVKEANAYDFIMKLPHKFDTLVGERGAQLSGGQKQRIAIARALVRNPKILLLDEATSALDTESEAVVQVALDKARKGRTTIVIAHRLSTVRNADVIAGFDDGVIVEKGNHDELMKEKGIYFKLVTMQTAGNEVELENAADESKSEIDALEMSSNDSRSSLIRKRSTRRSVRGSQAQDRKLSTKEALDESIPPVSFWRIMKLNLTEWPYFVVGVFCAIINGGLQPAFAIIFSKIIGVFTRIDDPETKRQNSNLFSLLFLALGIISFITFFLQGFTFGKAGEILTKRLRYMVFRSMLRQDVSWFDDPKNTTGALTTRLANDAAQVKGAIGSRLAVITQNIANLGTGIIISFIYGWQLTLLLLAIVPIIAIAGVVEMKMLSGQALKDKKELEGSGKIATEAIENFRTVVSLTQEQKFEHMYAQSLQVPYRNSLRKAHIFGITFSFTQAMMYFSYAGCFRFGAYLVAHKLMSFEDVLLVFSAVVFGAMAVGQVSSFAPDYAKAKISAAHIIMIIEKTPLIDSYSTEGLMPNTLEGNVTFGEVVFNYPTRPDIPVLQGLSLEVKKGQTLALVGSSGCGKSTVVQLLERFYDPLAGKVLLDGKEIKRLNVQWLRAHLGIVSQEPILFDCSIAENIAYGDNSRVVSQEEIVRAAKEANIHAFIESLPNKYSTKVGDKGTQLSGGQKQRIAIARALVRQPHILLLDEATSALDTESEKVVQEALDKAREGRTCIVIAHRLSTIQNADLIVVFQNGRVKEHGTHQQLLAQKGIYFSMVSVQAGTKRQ

[2] = Bidirectional transport, Calu-3 air-liquid culture model; conditions: human
LLC-PK1 cells = experiment: Permeability assay, LLC-PK1-MOCK cells; format: in vitro ADME; conditions: LLC-PK1, 2 μM, Mean ± SD, n = 3
Excerpt: (§1) The experimental methodology was as previously described.

[3] = Permeability assay, LLC-PK1-MOCK cells; format: in vitro ADME; conditions: pig; LLC-PK1, 2 μM, Mean ± SD, n = 3
Excerpt: as §1

[4] = Bidirectional transport, NCI-H441/dTHP co-culture model; format: in vitro ADME; conditions: human, Mean ± SD, n = 3
Method: THP-1 cells were cultured in RPMI-1640 medium (Gibco, Thermo, CA, USA) supplemented with 10% FBS, PS (100 U/mL), and β-Mer (0.05 mM) at 37 °C in a humidified 5% CO2 incubator, and the medium was changed every other day. THP-1 cells were seeded at 4 × 10^5 cells/mL in six-well plates and induced for 48 h by adding medium containing a final concentration of 100 ng/mL PMA. The successful differentiation into M0 macrophages was verified by morphological observation and mRNA detection.
Then, the differentiated cells were seeded at 5 × 10^4 cells/well on the surface of NCI-H441 cells 10 days after air–liquid culture and continued to co-culture for 24 h. […] The effective construction of the cellular barrier was acknowledged, and subsequently, the transfer experiment commenced.
We removed the liquid from the apical and basolateral of the Transwell, rinsed the cells three times with a buffer containing HBSS, 10 mM Hepes, and 0.1% BSA (Buffer A), and then added Buffer A (100 µL for the apical side and 600 µL for the basolateral side) for pre-incubation for 30 min at 37 °C. […]

human MDR1 (P-gp) = human MDR1 (P-gp) (Homo sapiens, UniProt P08183); experiment: Permeability assay, LLC-PK1-MDR1 cells overexpressing P-gp; conditions: LLC-PK1-MDR1, 2 μM, Mean ± SD, n = 3
P-gp (MDR1) = P-gp (MDR1) (Homo sapiens, UniProt P08183); experiment: as above; conditions: human, LLC-PK1

Papp A→B at 2 h, 2 µM ([1]; Mean ± SD, n = 3): 1.71 ± 0.14 ×10⁻⁶ cm/s
Papp B→A at 2 h, 2 µM ([1]; Mean ± SD, n = 3): 1.71 ± 0.12 ×10⁻⁶ cm/s
efflux ratio at 2 h, 2 μM ([1]; read-out: ER): 1
Papp A→B at 2 h, 2 µM [2]: 0.3 ± 0.05 ×10⁻⁶ cm/s
Papp B→A at 2 h, 2 µM [2]: 0.16 ± 0.04 ×10⁻⁶ cm/s
efflux ratio at 2 h, 2 μM [2]: 0.3 ± 0.05
Papp A-B (LLC-PK1 cells): BLQ
Papp B→A at 2 h, 2 µM [3]: 0.18 ± 0.02 ×10⁻⁶ cm/s
Papp A→B at 2 h, 2 µM [4]: 1.56 ± 0.17 ×10⁻⁶ cm/s
Papp B→A at 2 h, 2 µM [4]: 1.38 ± 0.24 ×10⁻⁶ cm/s
Papp A-B (human MDR1 (P-gp)): 1.22 ± 0.11 ×10−6 cm/s
Papp B→A at 2 h, 2 µM (P-gp (MDR1)): 1.55 ± 0.19 ×10⁻⁶ cm/s
efflux ratio at 2 h, 2 μM (P-gp (MDR1)): 1.27
SMILES: CC(C)NCC(O)COc1ccc(CC(N)=O)cc1 (stereo not shown) [Atenolol]
